Laboratory results: PubChem BioAssay AID602196 (INSERM, 2012)
The deposit covers about 23,000 reagents; shown is a random part of them. Of all reagents, 455 (2%) are marked active. 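Active includes both protection and sensitisation; some change values fall well beyond the stated -50 to +50 range.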 Not all columns of the deposit are shown. Not stated in the record: the amount of reagent.

- Purpose: 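Knock-downs that protect lung cancer cells from cisplatin or sensitise them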
- System: human A549 lung cancer cells
- Reagents: siRNA pair against human genes
- Time to read-out: 48 h transfection before cisplatin; time from cisplatin to read-out not stated
- Challenge: cisplatin at a dose killing half of control-siRNA cells; exact dose and duration not given
- Measured: 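Cisplatin cell death as a shift from the 50% death seen with control siRNA; siRNAs toxic or growth-blocking alone scored 0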
- Scale: two-siRNA summed score (-2 to +2): higher = both siRNAs protect from cisplatin killing; -2 means both sensitise; mean protection from cisplatin (shift in death): higher = protection from cisplatin killing
- Call rule: 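siRNAs harmful alone (LDH or WST-1) get 0; others get +1 for less and -1 for more cisplatin killing; genes are active when the two siRNAs give the same sign, summing to ±2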
- Meaning of the calls: active = both siRNAs shift cisplatin killing the same way; inactive = no consistent shift, or siRNA harmful alone

Against LOC441771, the entry reads two-siRNA summed score (-2 to +2) = 1; mean protection from cisplatin (shift in death) (%) = 11.7; inactive.
Silencing of ELAVL4 (ELAV like RNA binding protein 4) came out at: two-siRNA summed score (-2 to +2) = 0; mean protection from cisplatin (shift in death) (%) = -3; inactive.
Knock-down of SLC13A5 resulted in: two-siRNA summed score (-2 to +2) = 0; mean protection from cisplatin (shift in death) (%) = 0.2; inactive.
After knock-down of SMG7-AS1 (SMG7 antisense RNA 1), the screen gave two-siRNA summed score (-2 to +2) = 0; mean protection from cisplatin (shift in death) (%) = 6.6; inactive.
LOC442558 gave two-siRNA summed score (-2 to +2) = 0; mean protection from cisplatin (shift in death) (%) = 3.6; inactive.
LINC01343 (long independently transcribed non-coding RNA 1343) scored two-siRNA summed score (-2 to +2) = 0; mean protection from cisplatin (shift in death) (%) = -3; inactive.
FLJ43859 showed two-siRNA summed score (-2 to +2) = 0; mean protection from cisplatin (shift in death) (%) = 10.5; inactive.
With knock-down of LOC342969, the screen gave two-siRNA summed score (-2 to +2) = 1; mean protection from cisplatin (shift in death) (%) = 14.9; inactive.
Silencing of EGR3 (early growth response 3) gave: two-siRNA summed score (-2 to +2) = 2; mean protection from cisplatin (shift in death) (%) = 23.6; active.
For LOC402157, the entry reads two-siRNA summed score (-2 to +2) = 0; mean protection from cisplatin (shift in death) (%) = -4.4; inactive.

Active calls, of those listed so far:
EGR3 (early growth response 3): two-siRNA summed score (-2 to +2) = 2; mean protection from cisplatin (shift in death) (%) = 23.6; activity call = active

The listing continues:
TAFA1 (TAFA chemokine like family member 1) showed two-siRNA summed score (-2 to +2) = 0; mean protection from cisplatin (shift in death) (%) = 8.3; inactive.
Depletion of THEMIS (thymocyte selection associated) gave: two-siRNA summed score (-2 to +2) = 1; mean protection from cisplatin (shift in death) (%) = 11; inactive.
Against SLC19A1, the entry reads two-siRNA summed score (-2 to +2) = 0; mean protection from cisplatin (shift in death) (%) = 3; inactive.
TMT1B (thiol methyltransferase 1B) scored two-siRNA summed score (-2 to +2) = -1; mean protection from cisplatin (shift in death) (%) = -5.6; inactive.
ZSCAN31 (zinc finger and SCAN domain containing 31) showed two-siRNA summed score (-2 to +2) = 0; mean protection from cisplatin (shift in death) (%) = 7.4; inactive.
Depletion of IFNA5 (interferon alpha 5) resulted in: two-siRNA summed score (-2 to +2) = 1; mean protection from cisplatin (shift in death) (%) = 8; inactive.
MNS1 (meiosis specific nuclear structural 1) showed two-siRNA summed score (-2 to +2) = -1; mean protection from cisplatin (shift in death) (%) = -9.2; inactive.
For CPNE7 (copine 7), the values are two-siRNA summed score (-2 to +2) = 0; mean protection from cisplatin (shift in death) (%) = 6.3; inactive.
Knock-down of LOC439975 gave: two-siRNA summed score (-2 to +2) = 0; mean protection from cisplatin (shift in death) (%) = 5.8; inactive.
After knock-down of SHLD2P1 (shieldin complex subunit 2 pseudogene 1), the screen gave two-siRNA summed score (-2 to +2) = 0; mean protection from cisplatin (shift in death) (%) = -2.2; inactive.
After knock-down of SLC30A5, the record shows two-siRNA summed score (-2 to +2) = 0; mean protection from cisplatin (shift in death) (%) = 5.6; inactive.
For CD80 (CD80 molecule), the values are two-siRNA summed score (-2 to +2) = 0; mean protection from cisplatin (shift in death) (%) = 3.4; inactive.
CD86 (CD86 molecule) showed two-siRNA summed score (-2 to +2) = 0; mean protection from cisplatin (shift in death) (%) = 21.1; inactive.
LINC01697 (long independently transcribed non-coding RNA 1697) showed two-siRNA summed score (-2 to +2) = 1; mean protection from cisplatin (shift in death) (%) = 10.2; inactive.
Against EEF1AKMT1 (EEF1A lysine methyltransferase 1) the deposit lists two-siRNA summed score (-2 to +2) = 0; mean protection from cisplatin (shift in death) (%) = 9.8; inactive.
SURF1 (SURF1 cytochrome c oxidase assembly factor) gave two-siRNA summed score (-2 to +2) = 0; mean protection from cisplatin (shift in death) (%) = -1.2; inactive.
Against RALGDS (ral guanine nucleotide dissociation stimulator), the entry reads two-siRNA summed score (-2 to +2) = -1; mean protection from cisplatin (shift in death) (%) = -12; inactive.
Depletion of DOCK9 (dedicator of cytokinesis 9) resulted in: two-siRNA summed score (-2 to +2) = 0; mean protection from cisplatin (shift in death) (%) = 5.7; inactive.
For ALDH1A2 (aldehyde dehydrogenase 1 family member A2), the values are two-siRNA summed score (-2 to +2) = 0; mean protection from cisplatin (shift in death) (%) = 2.9; inactive.
For ZDHHC12 (zDHHC palmitoyltransferase 12) the deposit lists two-siRNA summed score (-2 to +2) = 0; mean protection from cisplatin (shift in death) (%) = 0.9; inactive.
With knock-down of TAS2R38 (taste 2 receptor member 38), the screen gave two-siRNA summed score (-2 to +2) = 0; mean protection from cisplatin (shift in death) (%) = -4.3; inactive.
